Measurements as given in PubChem BioAssay AID2685 (National Center for Advancing Translational Sciences (NCATS), 2010).
The list shows a part of the results. Further columns of the screen follow, without active or inactive calls. Compounds called inactive in the main read-out are mostly missing here. The note in brackets gives the kind of curve behind each potency; many fits are weak.

Assay: qHTS Assay for Lipid Storage Modulators in Drosophila S3 Cells;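 as to cell number change: cells counted by Cell Tracker Red CMTPX staining in the red channel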
Conditions: BODIPY lipid droplet fluorescence, 18-24 h; for cell number change: measured here: cell count max response, cells fed with added oleic acid
Procedure, shortened: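 Laser-scanning cytometry quantifies lipid droplet accumulation (500–530 nm total intensity; droplet/cell object ratio) in oleic acid-fed (400 uM added) Drosophila S3 cells treated with a concentration series. 20 uM Triacsin C defined 100% inhibition.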

[1] = measured here: cell number channel AC50, cells fed with added oleic acid
[2] = measured here: lipid fluorescence (Fed channel) AC50, cells fed with added oleic acid

With `CCOC(=O)C1=C(C)N=C2SC(C(=O)OC)=CC(=O)N2C1c1ccc(F)cc1` (centres undefined) the cell number change was 31.5%, the AC50 [1] was 32.6 µM [rising, single point] and the AC50 [2] was 20.6 µM [rising, partial curve, poor fit].
For `CC(CSc1nc2ccccc2s1)Cn1c(N2CCCC2)nc2c1c(=O)[nH]c(=O)n2C` (centres undefined), the AC50 [1] was 0.58 µM [rising, full curve] and the AC50 [2] was 0.58 µM [rising, full curve].
In the case of `O=C(COc1ccc2oc3c(c2c1)CCCC3)Nc1ccccn1`, the cell number change is reported as 33.6%, the AC50 [1] is reported as 16.4 µM [rising, single point] and the AC50 [2] is reported as 0.651 µM [falling, single point].
With `O=C(COc1ccccc1)NCC(c1ccco1)N1CCN(c2ccccc2F)CC1` (centres undefined) the cell number change was 6.8%, the AC50 [1] was 6.51 µM [rising, single point] and the AC50 [2] was 2.06 µM [rising, partial curve].
In the case of `CCN(CC)S(=O)(=O)c1ccc2oc(C(=O)O)c(C)c2c1`, the cell number change is reported as -7.38%, the AC50 [1] is reported as 0.291 µM [falling, full curve] and the AC50 [2] is reported as 0.82 µM [falling, full curve].
For `O=C(Nc1ccncc1)c1cccc(S(=O)(=O)N2CCCC2)c1`, the cell number change was -10.8% and the AC50 [2] was 0.0651 µM [rising, single point].
`N#CCC(=O)Nc1ccc(C(=O)N2CCN(S(=O)(=O)c3ccc4ccccc4c3)CC2)cc1` gave a cell number change of -7.09%.
With `O=C(Nc1ccc(NC(=O)C2CC2)nc1)c1cccs1` the cell number change was -6.78% and the AC50 [2] was 0.00461 µM [falling, full curve, poor fit].
In the case of `Cc1ccc2c(c1)-c1c(ssc1=S)C(C)(C)N2C(=O)CSC1=NCCS1`, the cell number change is reported as -130%, the AC50 [1] is reported as 8.2 µM [falling, partial curve] and the AC50 [2] is reported as 11.6 µM [falling, partial curve].
With `Nc1ncnc(N2CCOCC2)c1N` the cell number change was 35.2%, the AC50 [1] was 29.1 µM [rising, single point] and the AC50 [2] was 0.116 µM [rising, full curve, poor fit].
For `CC(CC(=O)Nc1cccc(S(=O)(=O)N2CCCCC2)c1)c1ccccc1` (centres undefined), the cell number change was -9.21% and the AC50 [2] was 0.259 µM [falling, partial curve, poor fit].
With `CCOC(=O)N1CCN(C(=O)c2ccc(Cl)c(S(=O)(=O)N3CCCC3)c2)CC1` the cell number change was 0.289% and the AC50 [2] was 0.461 µM [rising, full curve].
With `CC1CCC(C(C)C)C(OC(=O)COC(=O)c2ccc(N)cc2)C1` (centres undefined) the cell number change was -70.9%, the AC50 [1] was 9.2 µM [falling, partial curve] and the AC50 [2] was 11.6 µM [falling, partial curve].
For `c1ccc(Oc2nc(-c3cccnc3)nc3ccccc23)cc1`, the AC50 [2] was 0.259 µM [rising, full curve].
In the case of `COc1ccccc1CNC(=O)COC(=O)c1cc([N+](=O)[O-])ccc1N1CCOCC1`, the cell number change is reported as -47.3% and the AC50 [1] is reported as 14.6 µM [falling, partial curve, poor fit].
For `CCCN(Cc1ccccc1)S(=O)(=O)c1ccc(N2C(=O)CCC2=O)cc1`, the cell number change was -13.3% and the AC50 [2] was 0.517 µM [falling, single point].
With `CC1N(C)c2cc(NC(=O)c3ccco3)c(P(=O)(Nc3ccc([N+](=O)[O-])cc3)N3CCOCC3)cc2C1(C)C` (centres undefined) the cell number change was -2.77%.
In the case of `COc1c2c(cc3oc(=O)ccc13)OC(C)(C)C=C2`, the cell number change is reported as 0.956% and the AC50 [2] is reported as 2.31 µM [rising, partial curve].
In the case of `O=C(NCc1ccccc1)C1CCC(CNS(=O)(=O)c2cccs2)CC1` (centres undefined), the cell number change is reported as 1.8% and the AC50 [2] is reported as 29.1 µM [falling, single point].
`Cc1ccc2cc(CN(CC3CCCO3)C(=O)Nc3ccccc3F)c3nnnn3c2c1` (centres undefined) showed a cell number change of 22.5%.
With `Cn1cc(/C=C/C(=O)N2CCCC(C(=O)c3ccc(C(C)(C)C)cc3)C2)cn1` (centres undefined) the cell number change was -31.4%, the AC50 [1] was 16.4 µM [falling, single point] and the AC50 [2] was 18.4 µM [falling, single point].
With `C=C1C(=O)O[C@@H]2C[C@@H](C)[C@@H]3C=CC(=O)[C@@]3(C)[C@@H](OC(C)=O)[C@H]12` the cell number change was -71.7% and the AC50 [2] was 5.8 µM [falling, full curve, poor fit].
For `Cc1[nH]c2ccccc2c(=O)c1CN1CCCCC1`, the cell number change was -5.7% and the AC50 [2] was 20.6 µM [falling, single point].
In the case of `COc1ccc(CC(=O)OCc2cc(=O)n3cc(Br)ccc3n2)cc1OC`, the cell number change is reported as 14.8% and the AC50 [1] is reported as 3.66 µM [rising, single point].
In the case of `Cc1ccc2nc(-c3ccccc3Cl)cc(C(=O)Nc3cc(C)on3)c2c1`, the cell number change is reported as -68.4%, the AC50 [1] is reported as 18.4 µM [falling, partial curve] and the AC50 [2] is reported as 18.4 µM [falling, single point].
With `Cc1cccc(OCC(=O)O/N=C(\N)c2ccncc2)c1` the cell number change was -18.4% and the AC50 [2] was 5.62 µM [rising, single point].
For `O=C(CN1C(=O)c2ccccc2S1(=O)=O)NCCc1ccccc1`, the cell number change was 5.13% and the AC50 [1] was 0.103 µM [rising, full curve, poor fit].
In the case of `O=C(CSc1cccc[n+]1[O-])Nc1ccc([N+](=O)[O-])cc1Cl`, the cell number change is reported as 6.22% and the AC50 [2] is reported as 7.31 µM [rising, single point].
For `O=C(Nc1ccccc1F)Nc1cccc2ccc(O)cc12`, the cell number change was 0.875% and the AC50 [2] was 32.6 µM [falling, single point].
Compound `COc1ccc(NS(=O)(=O)c2cccc(C(=O)NCC(c3ccc(OC)cc3)N3CCOCC3)c2)cc1` (centres undefined) has a cell number change of -1.74%.
For `Cc1ccn2cc(-c3cccc(S(=O)(=O)N4CCCC4)c3)nc2c1`, the cell number change was 19.9%, the AC50 [1] was 0.00461 µM [rising, full curve, poor fit] and the AC50 [2] was 6.51 µM [rising, single point].
For `O=C(CCc1ccccc1)Nc1nc2n(n1)C(c1ccc(Cl)cc1)CC(=O)N2` (centres undefined), the cell number change was -3.79% and the AC50 [2] was 2.91 µM [rising, partial curve].
For `Cc1nc(SCC(=O)Nc2ccc3c(c2)OCCO3)nc(C)c1C`, the cell number change was -1.35% and the AC50 [1] was 3.66 µM [rising, single point].
In the case of `COC(=O)c1ccc(Oc2nc(NC(C)C)nc(N(C)C)n2)cc1`, the AC50 [2] is reported as 0.231 µM [rising, full curve, poor fit].
For `NC(=O)c1c(NC(=O)Cc2ccccc2)sc2c1CCN(Cc1ccccc1)C2`, the cell number change was -7.49% and the AC50 [2] was 29.1 µM [falling, single point].
